Results reported in paper PMC7335780, “Role of folding kinetics of secondary structures in telomeric G-overhangs in the regulation of telomere maintenance in Saccharomyces cerevisiae”.
For part of these data: Negatives hold for the conditions tested. Where a protein sequence is shown, tags need not be part of it. For part of these data: For at least one entry, the source does not settle the construct or the ends of the probe. For part of these data: The comparison behind a weaker result is the experiment's own reference, which may not be listed here. For part of these data: At least one verdict was read from the data and is not stated in words by the source.

What was measured:
[1] = target: T1, Cdc13-DBD (Saccharomyces cerevisiae (strain SCY325)) (UniProt P32797); assay: EMSA; details: probe folded >24 h in K+ buffer, decreased vs 20 min folding; 5' phosphate; EMSA: 1x K+ buffer (20 mM potassium phosphate pH 7.0, 135 mM KCl, 9% glycerol), 10 min at 22 C/RT, 6% PAGE in 0.5x TBE; recombinant protein; residues 497-694; label: 5'-32P; single-stranded DNA
T1 sequence (looked up): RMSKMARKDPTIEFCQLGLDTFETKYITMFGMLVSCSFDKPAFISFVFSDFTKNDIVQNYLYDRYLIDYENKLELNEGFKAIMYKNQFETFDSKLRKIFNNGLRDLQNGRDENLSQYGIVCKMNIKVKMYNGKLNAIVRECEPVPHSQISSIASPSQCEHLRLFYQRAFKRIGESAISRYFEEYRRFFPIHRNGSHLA

[2] = target: T1, Cdc13-DBD (Saccharomyces cerevisiae (strain SCY325)); assay: NMR; details: equimolar in K+TD buffer, no imino line broadening, no stable complex, recombinant protein, residues 497-694, folded or branched DNA
[3] = target: T1, Cdc13-DBD (Saccharomyces cerevisiae (strain SCY325)); assay: competition with a labelled probe; details: EMSA: 1x K+ buffer (20 mM potassium phosphate pH 7.0, 135 mM KCl, 9% glycerol), 10 min at 22 C/RT, 6% PAGE in 0.5x TBE, recombinant protein, residues 497-694
[4] = folded 72 h in K+ buffer, 50 or 75 nM, vs 32P-ONG11, folded or branched DNA

GTGTGGGTGTG [ONG11 5'-32P probe]: binds more weakly [1].

GTGTGGGTGTG [ONG11 folded G-hairpin]: no binding ([2]; folded species); binds more weakly ([3]; 24 h in K+ buffer, loses competing ability vs 20 min, folded or branched DNA); binds more weakly [3, 4].

“GTGTGGGTGTG [ONG11 unfolded (H2O or freshly boiled)]”: binds ([3]; 20 min in K+ buffer, mostly still unfolded, label: none as competitor, single-stranded DNA).

“GTGTGGGTGTGGTGTGGGTGTGGTGTGGGTGTG [ONG1 folded G4]”: no binding [2]; binds more weakly ([3]; 20 min in K+ buffer, poor competitor, unchanged at 24 h, folded or branched DNA); binds more weakly ([3]; folded 24 h in K+ buffer, 100-1000 nM, similar to ONG9, folded or branched DNA). “GTGTGGGTGTGGTGTGGGTGTGGTGTGGGTGTG [ONG1 folded G4]”: binds more weakly [3, 4].

TGGGTGTGGTGTGGGTGTGGT [ONG9 folded G4]: no binding [2]; binds more weakly ([3]; folded 24 h in K+ buffer, 100-1000 nM, similar to ONG1, folded or branched DNA).

TGTGGGTGTG [Cdc13-NC]: binds more weakly ([3]; unlabelled negative-control competitor vs 32P-ONG11, single-stranded DNA).
